Earlier results in patent US20110159118A1, “Screening Method (Metabolite Grid) for Therapeutic Extracts and Molecules for Diabetes” (priority 2000, published 2011).
At least one structure is not confirmed: it was looked up by name or label, or the drawing left a doubt.

Test system: hyperglycemic rats
Settings: effect comparable to metformin

**Q.** Which blood glucose level does the source give for `COc1cc(/C=C/c2ccc(O)cc2)cc(OC)c1` [pterostilbene] here?
**A.** Its blood glucose level is “significantly lowered”.
